{"source": "PubChem BioAssay AID1224830 (NIAID, 2016)", "screen": "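Genes whose knock-down alters the TNF-alpha reporter response to LPS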 (primary screen)", "system": "human THP-1 monocytic leukaemia cells, TNF dual-luciferase reporter clone, PMA-differentiated to macrophage-like cells", "reagents": "siRNA pool against human genes, 50 nM", "timing": "LPS for 4 h, given about 3 days after siRNA transfection", "conditions": "bacterial LPS (TLR4 ligand), 10 ng/ml", "detection": "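TNF firefly reporter luminescence divided by renilla, normalised to the plate median, then turned into a robust z-score for each replicate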", "scale": "TNF reporter robust z-score: higher = stronger TNF reporter response to LPS", "call rule": "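a well is active when its z-score exceeds 2.8 or falls below -1.5; control wells carry no call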", "note": "Shown is an unselected part of about 18,000 reagents. In the full data, about 2,900 (16%) got an active call. 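Calls are made per well; low scores hint the gene aids the LPS response, high scores that it dampens it.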 Unmarked entries are inactive. Repeated entries: four replicate wells of each siRNA pool. Reagent sequences are not shown."}
{"target gene": "TMT1B", "TNF reporter robust z-score": 0.11}
{"target gene": "TMT1B", "TNF reporter robust z-score": 0.24}
{"target gene": "TMT1B", "TNF reporter robust z-score": 0.47}
{"target gene": "TMT1B", "TNF reporter robust z-score": 1.9}
{"target gene": "KCNT1", "TNF reporter robust z-score": -0.88}
{"target gene": "KCNT1", "TNF reporter robust z-score": -1.18}
{"target gene": "KCNT1", "TNF reporter robust z-score": -0.76}
{"target gene": "KCNT1", "TNF reporter robust z-score": -1.42}
{"target gene": "MYADM", "TNF reporter robust z-score": -0.17}
{"target gene": "MYADM", "TNF reporter robust z-score": -0.51}
{"target gene": "MYADM", "TNF reporter robust z-score": 1.04}
{"target gene": "MYADM", "TNF reporter robust z-score": 1.71}
{"target gene": "CETP", "TNF reporter robust z-score": 0.38}
{"target gene": "CETP", "TNF reporter robust z-score": 1.66}
{"target gene": "CETP", "TNF reporter robust z-score": 0.42}
{"target gene": "CETP", "TNF reporter robust z-score": 0.14}
{"target gene": "USP6NL", "TNF reporter robust z-score": -0.91}
{"target gene": "USP6NL", "TNF reporter robust z-score": 0.07}
{"target gene": "USP6NL", "TNF reporter robust z-score": -0.78}
{"target gene": "USP6NL", "TNF reporter robust z-score": 0.08}
{"target gene": "VTN", "TNF reporter robust z-score": -0.86}
{"target gene": "VTN", "TNF reporter robust z-score": -0.2}
{"target gene": "VTN", "TNF reporter robust z-score": -0.82}
{"target gene": "VTN", "TNF reporter robust z-score": -0.32}
{"target gene": "KIRREL3", "TNF reporter robust z-score": -0.79}
{"target gene": "KIRREL3", "TNF reporter robust z-score": -0.38}
{"target gene": "KIRREL3", "TNF reporter robust z-score": -0.53}
{"target gene": "KIRREL3", "TNF reporter robust z-score": -0.57}
{"target gene": "GDA", "TNF reporter robust z-score": -1.18}
{"target gene": "GDA", "TNF reporter robust z-score": -1.11}
{"target gene": "GDA", "TNF reporter robust z-score": -0.47}
{"target gene": "RNF175", "TNF reporter robust z-score": 0.42}
{"target gene": "RNF175", "TNF reporter robust z-score": 1.61}
{"target gene": "RNF175", "TNF reporter robust z-score": 0.27}
{"target gene": "RNF175", "TNF reporter robust z-score": 0.29}
{"target gene": "SH3GLB2", "TNF reporter robust z-score": -1.23}
{"target gene": "SH3GLB2", "TNF reporter robust z-score": -1}
{"target gene": "SH3GLB2", "TNF reporter robust z-score": -1.16}
{"target gene": "SH3GLB2", "TNF reporter robust z-score": -1.26}
{"target gene": "PPIA", "TNF reporter robust z-score": 0.94}
{"target gene": "PPIA", "TNF reporter robust z-score": 2.01}
{"target gene": "PPIA", "TNF reporter robust z-score": 0.83}
{"target gene": "PPIA", "TNF reporter robust z-score": 2}
{"target gene": "SLC2A12", "TNF reporter robust z-score": -1.34}
{"target gene": "SLC2A12", "TNF reporter robust z-score": -0.26}
{"target gene": "SLC2A12", "TNF reporter robust z-score": -0.61}
{"target gene": "SLC2A12", "TNF reporter robust z-score": -0.46}

2 of these entries, set out differently:
{"target gene":"KCNT1","TNF reporter robust z-score":-1.42}
{"target gene":"MYADM","TNF reporter robust z-score":-0.17}
